The results in this text go back to article PMC9233711, “Wiskott-Aldrich syndrome protein forms nuclear condensates and regulates alternative splicing” (Nature Communications, 2022).

By UniProt entry, the sequences of proteins in these tests, tags left out.
UniProt P42768: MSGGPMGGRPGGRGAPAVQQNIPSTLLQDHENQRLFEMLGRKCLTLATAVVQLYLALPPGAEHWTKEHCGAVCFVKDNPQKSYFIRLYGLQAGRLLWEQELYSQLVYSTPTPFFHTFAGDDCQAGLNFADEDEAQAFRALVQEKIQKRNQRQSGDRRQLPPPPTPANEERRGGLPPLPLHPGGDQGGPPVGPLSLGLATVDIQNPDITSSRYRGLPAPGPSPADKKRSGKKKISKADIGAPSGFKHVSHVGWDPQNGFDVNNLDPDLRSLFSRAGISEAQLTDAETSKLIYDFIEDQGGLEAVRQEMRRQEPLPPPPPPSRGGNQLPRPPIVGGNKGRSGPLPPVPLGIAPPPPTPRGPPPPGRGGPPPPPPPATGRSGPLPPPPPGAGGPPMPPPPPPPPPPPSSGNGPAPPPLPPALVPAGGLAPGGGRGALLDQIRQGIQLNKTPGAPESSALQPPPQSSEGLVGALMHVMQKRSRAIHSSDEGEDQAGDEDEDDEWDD
UniProt Q15393: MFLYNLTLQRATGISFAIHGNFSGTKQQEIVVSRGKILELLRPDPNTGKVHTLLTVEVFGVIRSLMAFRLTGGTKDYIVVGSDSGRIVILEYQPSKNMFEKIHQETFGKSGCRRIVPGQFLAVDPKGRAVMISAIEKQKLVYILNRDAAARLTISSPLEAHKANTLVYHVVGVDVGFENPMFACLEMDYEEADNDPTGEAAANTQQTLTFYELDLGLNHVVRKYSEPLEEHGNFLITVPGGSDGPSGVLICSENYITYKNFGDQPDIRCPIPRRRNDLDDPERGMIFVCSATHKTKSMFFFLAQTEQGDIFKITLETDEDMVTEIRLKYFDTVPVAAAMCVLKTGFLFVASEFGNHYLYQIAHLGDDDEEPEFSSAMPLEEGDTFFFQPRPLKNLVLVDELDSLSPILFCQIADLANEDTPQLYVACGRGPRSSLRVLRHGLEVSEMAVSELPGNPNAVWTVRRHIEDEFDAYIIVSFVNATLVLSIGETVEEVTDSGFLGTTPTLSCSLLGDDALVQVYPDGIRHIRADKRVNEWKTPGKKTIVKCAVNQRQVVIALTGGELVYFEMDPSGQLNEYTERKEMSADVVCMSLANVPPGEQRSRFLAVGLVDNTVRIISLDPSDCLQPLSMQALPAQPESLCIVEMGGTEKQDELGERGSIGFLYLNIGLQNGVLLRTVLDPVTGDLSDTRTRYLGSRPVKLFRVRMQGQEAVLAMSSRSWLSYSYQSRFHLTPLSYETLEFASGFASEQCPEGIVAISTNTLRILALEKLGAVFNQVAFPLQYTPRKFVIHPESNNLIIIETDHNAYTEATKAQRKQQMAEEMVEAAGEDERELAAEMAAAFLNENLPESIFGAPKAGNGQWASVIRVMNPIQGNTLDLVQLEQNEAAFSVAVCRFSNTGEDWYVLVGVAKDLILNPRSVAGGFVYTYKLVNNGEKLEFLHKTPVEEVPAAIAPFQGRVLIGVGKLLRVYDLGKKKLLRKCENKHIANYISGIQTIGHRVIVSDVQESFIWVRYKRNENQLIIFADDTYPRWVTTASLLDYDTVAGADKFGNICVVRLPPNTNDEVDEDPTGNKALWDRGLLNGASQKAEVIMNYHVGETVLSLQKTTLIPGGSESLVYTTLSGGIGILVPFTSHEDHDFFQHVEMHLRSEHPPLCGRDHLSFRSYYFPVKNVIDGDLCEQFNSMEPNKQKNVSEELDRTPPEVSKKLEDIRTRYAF

Results are given in words; binding and its absence hold for the method and conditions named. In cells and extracts the contact can be indirect. Some binding calls cover weakened binding; strength is not graded here.

Assay [1] addresses Wiskott-Aldrich syndrome protein (WASP), endogenous (human (endogenous in B lymphoblastoid cell lines)) (UniProt P42768). The assay can be described thus: proximity ligation; Duolink In Situ Red Mouse/Rabbit kit on fixed, permeabilised WT B cells; mouse anti-WASP (D-1) with rabbit antibody to the partner; rabbit isotype as negative control.
Assay [2] has the same target. Kind of assay: co-IP; B-cell lysates (50 mM Tris-HCl pH 7.5, 150 mM NaCl, 0.5% Triton X-100), protein A-Sepharose conjugated with antibodies, 30 min at 4 °C, immunoblot. For orientation: In western blotting, separated proteins are transferred to a membrane and probed.

For “SF3B3 (also known as SAP130), endogenous (from UniProt Q15393 1-1217)”, the binding result in assay [1] and in assay [2] was “binds” in each case.

B1: SRSF2, endogenous (protein, UniProt Q01130 1-221)
chain: MSYGRPPPDVEGMTSLKVDNLTYRTSPDTLRRVFEKYGRVGDVYIPRDRYTKESRGFAFVRFHDKRDAEDAMDAMDGAVLDGRELRVQMARYGRPPDSHHSRRGPPPRRYGGGGYGRRSRSPRRRRRSRSRSRSRSRSRSRSRYSRSKSRSRTRSRSRSTSKSRSARRSKSKSSSVSRSRSRSRSRSRSRSPPPVSKRESKSRSRSKSPPKSPEEEGAVSS
As to B1, the binding entry in assay [1] and in assay [2] was “binds” each time.
